For series [1], the system named is GST-Kat1 (Kluyveromyces lactis). The series is described as follows: EMSA. The conditions noted are these: 5 mM Mg2+, smear, multimeric complexes, non-specific; EMSA: 50 mM Tris-HCl (pH not given), 0.5 mM EDTA, 1 mM DTT, 100 ug/ml BSA, 7 ng/ul ssDNA, 5 mM MgCl2, 60 min on ice (4 C), ~1.4 nM probe; recombinant protein; protein details: N-terminal GST; label: 32P 5' end; letters put together from the description. For orientation: A gel shift assay detects complexes by their altered migration in electrophoresis.

In series [2] the test system is GST-Kat1-C (Kluyveromyces lactis). Put plainly: EMSA. The conditions noted are these: 5 mM Mg2+, 5-40 nM; EMSA: 50 mM Tris-HCl (pH not given), 0.5 mM EDTA, 1 mM DTT, 100 ug/ml BSA, 7 ng/ul ssDNA, 5 mM MgCl2, 60 min on ice (4 C), ~1.4 nM probe; recombinant protein; protein details: GST; label: 32P 5' end; letters put together from the description.
The test system of series [3] is GST-Kat1-N (Kluyveromyces lactis). Put plainly: EMSA. The following applies: 5 mM Mg2+, much stronger than full length; EMSA: 50 mM Tris-HCl (pH not given), 0.5 mM EDTA, 1 mM DTT, 100 ug/ml BSA, 7 ng/ul ssDNA, 5 mM MgCl2, 60 min on ice (4 C), ~1.4 nM probe; recombinant protein; protein details: GST; label: 32P 5' end; letters put together from the description.
Series [4] relates to GST-Kat1 (Kluyveromyces lactis). The series is described as follows: competition with a labelled probe. The following applies: cold probe competitor 75-300 ng, competed; EMSA: 50 mM Tris-HCl (pH not given), 0.5 mM EDTA, 1 mM DTT, 100 ug/ml BSA, 7 ng/ul ssDNA, 5 mM MgCl2, 60 min on ice (4 C), ~1.4 nM probe; recombinant protein; protein details: N-terminal GST; label: 32P 5' end; letters put together from the description.

The test system of series [5] is Kat1 (GST removed by thrombin) (Kluyveromyces lactis). Put plainly: GEMMA (gas-phase electrophoretic mobility). The following applies: 4.0 uM Kat1, 1.4 uM DNA, peaks shifted slightly to higher mass, 100 mM ammonium acetate; recombinant protein.

Construct, isoform or probe ends are uncertain for at least one entry. For some assays here: A negative result means that nothing was seen under these conditions.

Turning to “GACATGGAAAGGAAGACATGGTTGGTCTGATTTCATTAACGTTTCAGGTATACATCAAAATTCAGTGAATTTAATTCTGTCGTTTGAAACCAGTTTAGGTGAAATTGGATTAGGTGGTGAATTGATACATAGTAAATAATTACTGGTCCATAATTTTTGTGAATATTTATGCTCTTTATACTATGTAGTTTTTATCCTGAATATTAACGATTGCTCACCTAAATTTCTCGTTTAAAATCCCTATAATGTGAATGGTTTTAGATGATTCATGGTGTTTTTATTAGTGACCGAAATGTTTAGTTTTGGATACTTGATGATAGAATAAAGAGAAGTGTTATGTAAAAAGTGTTAATTCATGTTAAATTCACTACCTTCTTGAGATTCAATTCACACCATTTGATGGTGAATATATCCATCTTAATCAGACGTATACAGAATTCACCTTCAGATGTGTAAGAGTTTTATGTATTCCAATATGTCATTTGTCAATTTGTCTGCATTTCAAACAAAGGAAAAATAAACTTAAGGACATATATCTGAAAATATACCACATAGATACGTCCCTGTTTTAGATACAGC (double strand) [MATa1-MATa2 intergenic probe (577 bp; 579 bp in Fig S5)]”, the binding result was “binds” in series [1], “no binding” in series [2], “binds” in series [3] and “binds” in series [4].
Take “TGAATATATCCATCTTAATCAGACGTATACAGAATTCACC (double strand) [TIR-R 40-bp duplex]”: in series [5], the binding result is given as “binds”.

For the origin of these results see PMC4763223.
